Source: patent US20210230600
Where cells or extracts were used, other partners may take part. For some assays here: For at least one entry, the source does not settle the construct or the ends of the probe. For some assays here: No signal at the amounts used counts as a negative.

By UniProt entry, the sequences of proteins in these tests, tags left out. Residues count along the entry.
UniProt Q9NZQ7, 19-290: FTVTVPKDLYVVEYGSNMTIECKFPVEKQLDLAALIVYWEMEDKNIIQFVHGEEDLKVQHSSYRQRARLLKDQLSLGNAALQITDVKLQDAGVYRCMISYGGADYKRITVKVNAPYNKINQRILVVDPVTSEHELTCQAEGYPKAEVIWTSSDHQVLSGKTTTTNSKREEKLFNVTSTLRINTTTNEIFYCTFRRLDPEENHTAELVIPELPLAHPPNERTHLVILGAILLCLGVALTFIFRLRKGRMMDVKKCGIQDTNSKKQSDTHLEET

What was measured:
PD-L1 = PD-L1 (UniProt Q9NZQ7); assay: binding assay; conditions: plate-reader fluorescence on fixed cells, 700 nM, DPBS with Ca, Mg, KCl, 37 C; protein on the cell surface; protein details: on PFA-fixed MDA-MB-231 cells; label: Alexa647; single-stranded DNA
[1] = test system: PD-L1 (mouse PD-L1 on CT-26 cells or human PD-L1 on CHO-K1 cells + the cell line shown is not stated) (Mus musculus / Homo sapiens); assay: flow cytometry; conditions: protein on the cell surface, single-stranded DNA
[2] = 100 nM, on ice, BSA staining buffer, label: Alexa647

Row | Sequence | binding result (PD-L1) | binding result ([1]; 100 nM and 600 nM, also in DPBS with Ca, Mg and 1.33 mM KCl, label: Alexa647) | binding result [1, 2] | binding result ([1]; PS at all linkages, negative control without affinity for PD-L1)
1 | ACGGGCCACATCAACTCATTGATAGACAATGCGTCCACTGCCCGT [AptPDL1-45mer] | binds | binds | – | –
2 | ACTCATTGATAGACAATGCGTGCCCGCAGC [AptPDL1-A4] | binds | – | binds | –
3 | AGCGATTGATAGACAATCGCT [AptPDL1-n05] | – | – | binds | –
4 | AGTTATGCTTTCCCCCTCTTTGATAGACAA [AptPDL1-2A] | binds | – | binds | –
5 | ATGAACTCATTCATACACAATGCGTG [AptPDL1-n07] | binds | – | binds | –
6 | GAACAAAGGTATTAGACATCTTGATAGACAA [AptPDL1-3A] | binds | – | binds | –
7 | GTTGTTTTTTCACTCATTGATAGACAATGCGT [AptPDL1-1A] | binds | – | binds | –
8 | TCGAACGTTCGAACGTTCGAACGTTCGAAT [CpG-L0-PS] | – | – | – | no binding
